Measured values: patent US20200165257A1, “INHIBITORS OF PHOSPHOINOSITIDE 3-KINASE AND HISTONE DEACETYLASE FOR TREATMENT OF CANCER” (THE UNITED STATES OF AMERICA, AS REPRESENTED BY THE …, priority 2017, published 2020)
“And” between values parts separate entries of the source, which are not always exact repeats. Equal entries are not always repeated. Some of these results come from one statement about several compounds together.

How the values were obtained:
[1] = test system: Non-Small Cell Lung Cancer Cell Line A549/ATCC; settings: single dose, 10 uM compound concentration
[2] = target: T1, HDAC8 (Homo sapiens, UniProt Q9BY41); assay: HDAC Fluorescent Activity Assay; format: biochemical
T1 sequence (Q9BY41 1-377): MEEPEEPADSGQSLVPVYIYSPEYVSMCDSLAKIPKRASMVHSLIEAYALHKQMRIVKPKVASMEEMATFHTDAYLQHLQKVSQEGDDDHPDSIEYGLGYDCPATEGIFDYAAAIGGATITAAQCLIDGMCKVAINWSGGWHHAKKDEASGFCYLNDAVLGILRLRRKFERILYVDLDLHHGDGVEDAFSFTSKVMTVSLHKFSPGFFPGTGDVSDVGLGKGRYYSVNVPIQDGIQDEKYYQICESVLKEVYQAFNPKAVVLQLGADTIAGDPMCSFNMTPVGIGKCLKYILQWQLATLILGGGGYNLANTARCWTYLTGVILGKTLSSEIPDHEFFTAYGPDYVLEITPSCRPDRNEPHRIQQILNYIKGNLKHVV

[3] = test system: CNS Cancer Cell Line SF-268; settings: single dose, 10 uM compound concentration
[4] = test system: Melanoma Cell Line UACC-257; settings: single dose, 10 uM compound concentration
[5] = test system: Non-Small Cell Lung Cancer Cell Line HOP-92; settings: single dose, 10 uM compound concentration
[6] = test system: Renal Cancer Cell Line RXF 393; settings: single dose, 10 uM compound concentration
[7] = test system: Breast Cancer Cell Line T-47D; settings: single dose, 10 uM compound concentration
[8] = test system: Breast Cancer Cell Line MCF7; settings: single dose, 10 uM compound concentration
[9] = test system: Melanoma Cell Line MALME-3M; settings: single dose, 10 uM compound concentration
[10] = test system: Prostate Cancer Cell Line PC-3; settings: single dose, 10 uM compound concentration
[11] = test system: CNS Cancer Cell Line SNB-75; settings: single dose, 10 uM compound concentration
[12] = test system: Renal Cancer Cell Line 786-0; settings: single dose, 10 uM compound concentration
[13] = test system: Leukemia Cell Line MOLT-4; format: cell-based, human; settings: single dose, 10 uM compound concentration
[14] = test system: Renal Cancer Cell Line SN12C; settings: single dose, 10 uM compound concentration

CC[C@H](Nc1ncnc2[nH]cnc12)c1nc(NCCCCCC(=O)NO)c2ccccc2n1 [XXXI, (S)-6-((2-(1-((9H-purin-6-yl)amino)propyl)quinazolin-4-yl)amino)-N-hydroxyhexanamide]
inhibition of proliferation [1]: 25%-50%

CC[C@H](Nc1ncnc2[nH]cnc12)c1nc2cccc(NCCCCC(=O)NO)c2c(=O)n1-c1ccccc1 [XVI, (S)-5-((2-(1-((9H-purin-6-yl)amino)propyl)-4-oxo-3-phenyl-3,4-dihydroquinazolin-5-yl)amino)-N-hydroxypentanamide]
HDAC6 Selectivity Over HDAC8 [2]: > 10 fold

CC[C@H](Nc1ncnc2[nH]cnc12)c1nc2cccc(CCCCNC(=O)NO)c2c(=O)n1-c1ccccc1 [Compound XXIV]
inhibition of proliferation [3]: 25%-50%
inhibition of proliferation [4]: 25%-50%
inhibition of proliferation [5]: 25%-50%
inhibition of proliferation [6]: 25%-50%
inhibition of proliferation [7]: 25%-50%
inhibition of proliferation [8]: 25%-50%
inhibition of proliferation [9]: 25%-50%
inhibition of proliferation [10]: 25%-50%
inhibition of proliferation [11]: > 50%
inhibition of proliferation [12]: 25%-50%
inhibition of proliferation [13]: > 50% and 25%-50%
inhibition of proliferation [14]: 25%-50%
